Experimental findings from publication PMC9744749 are described below.

Chains of the proteins cited; added tags and fusions are not shown.
UniProt Q8BKJ9: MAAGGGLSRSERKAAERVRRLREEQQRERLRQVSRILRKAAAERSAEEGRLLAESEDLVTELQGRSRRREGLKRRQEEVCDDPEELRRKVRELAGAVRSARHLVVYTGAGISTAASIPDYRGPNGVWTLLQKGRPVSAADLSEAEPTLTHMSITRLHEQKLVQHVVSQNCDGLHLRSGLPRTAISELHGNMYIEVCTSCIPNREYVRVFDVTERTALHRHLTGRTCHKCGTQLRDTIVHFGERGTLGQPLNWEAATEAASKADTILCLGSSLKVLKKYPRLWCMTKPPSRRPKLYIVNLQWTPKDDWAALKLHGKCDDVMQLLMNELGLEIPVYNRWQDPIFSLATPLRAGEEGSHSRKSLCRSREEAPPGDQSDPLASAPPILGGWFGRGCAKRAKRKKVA
UniProt Q5SF07: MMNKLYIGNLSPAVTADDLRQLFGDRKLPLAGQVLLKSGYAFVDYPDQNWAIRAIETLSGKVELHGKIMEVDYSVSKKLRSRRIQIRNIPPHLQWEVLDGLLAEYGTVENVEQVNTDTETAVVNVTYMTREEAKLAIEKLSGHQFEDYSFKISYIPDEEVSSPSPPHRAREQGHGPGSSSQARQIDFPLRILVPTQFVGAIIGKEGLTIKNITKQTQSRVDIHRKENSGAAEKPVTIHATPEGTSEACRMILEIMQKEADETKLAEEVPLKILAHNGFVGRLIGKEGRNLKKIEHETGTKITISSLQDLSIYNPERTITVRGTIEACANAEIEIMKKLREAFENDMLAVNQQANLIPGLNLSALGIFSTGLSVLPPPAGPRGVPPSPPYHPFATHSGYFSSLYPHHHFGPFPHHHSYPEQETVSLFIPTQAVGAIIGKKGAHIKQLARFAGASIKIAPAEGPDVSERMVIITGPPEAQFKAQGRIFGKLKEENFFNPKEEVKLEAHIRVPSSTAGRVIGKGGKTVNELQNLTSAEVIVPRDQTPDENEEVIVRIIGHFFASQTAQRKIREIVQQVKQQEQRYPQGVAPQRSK

This assay has as its target Halo-SIRT7 (UniProt Q8BKJ9). Put plainly: affinity purification with mass spectrometry; Halo-SIRT7 immobilised on HaloLink Resin, incubated with extract of cultured brown adipocytes in pull-down buffer (10 mM Tris-HCl pH 7.4, 150 mM NaCl, 0.5% NP-40, 10 mM nicotinamide, 1 uM TSA) at 4 °C overnight; bound proteins resolved by SDS-PAGE, silver staining, LC-MS/MS; performed one time; only the target purified.

These are yes or no findings as the source states them, for the method shown. In cells and extracts the contact can be indirect. Here binding means that the protein was enriched with, or labelled near, the bait; the list need not be complete.

Consider “insulin-like growth factor 2 mRNA-binding protein 2 (endogenous, brown adipocytes) (from UniProt Q5SF07 1-592)”, for which the binding entry was “binds”.
